Experimental data taken from PubChem BioAssay AID540256 (National Center for Advancing Translational Sciences (NCATS), 2011).
Out of some 300,000 compounds screened, about 3,700 (1.2%) were called active. Inconclusive means that the source gave no clear call. Such entries were picked first, then a sample of the others. The call rests on the fitted dose curve; tested in HEK293 cells. Potencies beside an inconclusive call are fits to weak or partial responses and may not hold up.

assay: qHTS for Inhibitors of binding or entry into cells for Lassa Virus; conditions: Lassa virus pseudotype entry inhibition, cell reporter; activity change, negative = inhibition: at 37.9 µM (top of the series) unless noted; further: nearly all actives have a fitted effect of over 50% in size
On the % scale 0 is the no-effect control and ±100 the full control effect; potency means the concentration at half of the fitted maximal effect.

SMILES | Potency | activity change, negative = inhibition
CCCNC(=O)c1c(Cl)cnn1-c1ccc(C)cc1 | inconclusive: 25.1 µM [inhibitor, partial curve, poor fit] | –
CCc1ccc(-n2nc(C)c3c(C(=O)Nc4cc(OC)cc(OC)c4)cc(C)nc32)cc1 | inconclusive: 35.5 µM [activator, single point] | –
CC(c1ccco1)N(C(=O)c1ccc(F)cc1)c1ccccn1 (stereo not drawn) | – | inactive: 6.59%
CN1C(=O)C(C)(C)c2cc(S(=O)(=O)NCc3ccc(C(=O)Nc4ccc(Cl)cc4)cc3)ccc21 | inconclusive: 35.5 µM [inhibitor, single point] | –
COC(=O)C1=C(C)N(c2cc(C)cc(C)c2)/C(=C/c2ccco2)C1=O | inconclusive: 6.31 µM [inhibitor, partial curve, poor fit] | –
S=C(NCC1CCCO1)N1CCN(c2ccc(Cl)c(Cl)c2)CC1 (stereo not drawn) | inconclusive: 35.5 µM [inhibitor, single point] | –
CCOC(=O)Cn1nc(C)c(NC(=O)COc2cccc(Cl)c2)c1C | inconclusive: 7.08 µM [inhibitor, partial curve, poor fit] | –
CC(=O)Nc1ccc(C(=O)N/N=C/c2cc(Br)cc(Br)c2O)cc1 | inconclusive: 10 µM [inhibitor, partial curve, poor fit] | –
COc1cc(NS(C)(=O)=O)ccc1Nc1c2ccccc2nc2ccccc12 | active: 0.58 µM | –
CS(=O)(=O)Nc1ccc(C2=NN(C(=O)C3CCCCC3)C(c3cccs3)C2)cc1 (stereo not drawn) | inconclusive: 5.01 µM [inhibitor, partial curve] | –
CC(CN1CCN(C)CC1)OC(=O)c1ccc(F)cc1 (stereo not drawn) | inconclusive: 1.26 µM [inhibitor, single point] | –
COc1ccc2[nH]cc(CCNC(=O)c3ccc4ccccc4n3)c2c1 | inconclusive: 12.6 µM [inhibitor, partial curve] | –
CCOc1ccc(NC(=O)CSc2nccn2C)cc1 | inconclusive: 4.61 µM [activator, full curve] | –
COc1ccc(-c2nc(-c3cccnc3)no2)cc1OC | – | inactive: 7.03% [at 46.1 µM]
Cc1ccc2[nH]c3nc(SCC#N)nnc3c2c1 | inconclusive: 3.16 µM [inhibitor, single point] | –
COc1ccc(C(=O)Nc2ccc3nc(SCC(=O)N4CCCc5ccccc54)sc3c2)cc1 | – | inactive: -25.1% [at 46.1 µM]
COC(=O)c1sccc1S(=O)(=O)N(CC(=O)NCc1ccc(C)cc1)c1ccc(Cl)cc1 | inconclusive: 5.62 µM [inhibitor, single point] | –
CCN(CC)C(=O)c1sc2c(c1C)c(=O)n(-c1ccc(Cl)c(Cl)c1)c(=O)n2Cc1cc(=O)n2c(C)cccc2n1 | – | inactive: 9.57% [at 46.1 µM]
Nn1c(-c2ccccn2)nnc1-c1ccccn1 | – | inactive: -5.1%
NC(=O)c1cc(S(=O)(=O)N2CCc3ccccc3C2)cs1 | inconclusive: 12.6 µM [inhibitor, single point] | –
COc1ccc(-c2csc(NC(=O)C3CCN(c4ncnc5sc(C)c(C)c45)CC3)n2)cc1OC | active: 2 µM | –
COc1ccccc1OCc1nnc(SCC(=O)NCc2ccco2)n1-c1ccccc1 | – | inactive: 0.399%

SMILES | Potency | activity change, negative = inhibition
O=C(CSc1ccccn1)Nc1ccc(Cl)cn1 | – | inactive: 12.4%
CC(C)N1C(=O)/C(=C\c2nc3ccccc3c(=O)[nH]2)c2ccccc21 | inconclusive: 20 µM [inhibitor, single point] | –
COc1cn(-c2ccccc2)nc1C(=O)Nc1ccc(C)cc1 | inconclusive: 11.2 µM [inhibitor, partial curve, poor fit] | –
CCOc1cc(/C=N/O)ccc1OCC(=O)Nc1cccc(C)c1 | inconclusive: 16.4 µM [activator, single point] | –
COc1cccc(/C=C(\C#N)C(=O)NC2CCS(=O)(=O)C2)c1 (stereo not drawn) | – | inactive: 7.67%
CCOC(=O)c1cc(S(=O)(=O)N2CCN(c3ccc(OC)cc3)CC2)[nH]n1 | – | inactive: 23.7% [at 46.1 µM]
C[C@H]1Cc2c(COc3ccccc3)nc3c(c2CO1)CN(C(=O)NCc1ccco1)CC3 | inconclusive: 5.31 µM [activator, single point] | –
Cn1c2c(c(=O)[nH]c1=O)C(c1cccc(O)c1)C1=C(N2)c2ccccc2C1=O (stereo not drawn) | inconclusive: 1.58 µM [inhibitor, full curve, poor fit] | –
Cc1ccc(-n2ncc(C(=O)NCCN3CCc4ccccc4C3)c2C2CCN(C(=O)OC(C)(C)C)CC2)cc1 | inconclusive: 7.08 µM [inhibitor, full curve, poor fit] | –
CC1(C)CC(n2c(NCCO)nc3c(c2=O)C2(CCCC2)Cc2ccccc2-3)CCO1 (stereo not drawn) | inconclusive: 29.1 µM [inhibitor, single point] | –
COc1ccc(-c2nn(-c3ccccc3)cc2CO)cc1 | – | inactive: 18.5%
CNC(=S)N/N=C/c1cn(Cc2ccc(C)cc2)c2ccccc12 | inconclusive: 11.2 µM [inhibitor, partial curve, poor fit] | –
CCN(C(=O)c1oc2ccc(S(=O)(=O)N3CCCCCC3)cc2c1C)c1ccccc1 | inconclusive: 25.1 µM [inhibitor, partial curve, poor fit] | –
CCn1nc(C)cc1C(=O)N1CCCC(N(C)CCc2ccc(OC)c(OC)c2)C1 (stereo not drawn) | – | inactive: -5.61%
COc1ccc(CCC(=O)Nc2cc(Cl)ccc2OC)cc1 | inconclusive: 29.1 µM [inhibitor, single point] | –
COc1nc(Cc2ccc(Cl)cc2)nc2ccccc12 | inconclusive: 12.6 µM [inhibitor, partial curve, poor fit] | –
Cc1nc2ccccc2c(=O)n1C1CCCCCC1 | – | inactive: -1.04%
Cc1c(N=Nc2c(O)n(Cc3ccccc3)c(=O)[nH]c2=O)c(=O)n(-c2ccccc2)n1C | inconclusive: 12.6 µM [inhibitor, partial curve, poor fit] | –
CCN(CC)S(=O)(=O)c1cc(NC(=O)C(C)OC(=O)c2[nH]c(C)c(C(C)=O)c2C)ccc1C (stereo not drawn) | inconclusive: 10.3 µM [inhibitor, partial curve] | –
CCN(C(=O)CSc1nnc2ccccn12)c1c(N)n(Cc2ccccc2)c(=O)[nH]c1=O | inconclusive: 0.794 µM [inhibitor, single point] | –
CCOC(=O)Nc1ccc(S(=O)(=O)Nc2nc(C)cc(C)n2)cc1 | – | inactive: 26.8% [at 14.3 µM]

Complete entries, looked up by structure.
NC(=O)c1cc(S(=O)(=O)N2CCc3ccccc3C2)cs1 is listed as Potency: inconclusive: 12.6 µM [inhibitor, single point]
COC(=O)c1sccc1S(=O)(=O)N(CC(=O)NCc1ccc(C)cc1)c1ccc(Cl)cc1 is listed as Potency: inconclusive: 5.62 µM [inhibitor, single point]
